Experimental data taken from publication doi:10.1101/2021.06.30.450611.
These are yes or no findings as the source states them, for the method shown. Binding calls can cover weak binding; strength is not graded here. Sequences can lack the tags named with a protein.

Target: microtubules of the optical trapping experiments
Assay: single bead optical trap

| binding | Binder |
| --- | --- |
| binds | full-length recombinant human KIF1C-GFP (wildtype) (protein, UniProt O43896 1-1103) MAGASVKVAVRVRPFNARETSQDAKCVVSMQGNTTSIINPKQSKDAPKSFTFDYSYWSHTSTEDPQFASQQQVYRDIGEEMLLHAFEGYNVCIFAYGQTGAGKSYTMMGRQEPGQQGIVPQLCEDLFSRVSENQSAQLSYSVEVSYMEIYCERVRDLLNPKSRGSLRVREHPILGPYVQDLSKLAVTSYADIADLMDCGNKARTVAATNMNETSSRSHAVFTIVFTQRCHDQLTGLDSEKVSKISLVDLAGSERADSSGARGMRLKEGANINKSLTTLGKVISALADMQSKKRKSDFIPYRDSVLTWLLKENLGGNSRTAMIAALSPADINYEETLSTLRYADRTKQIRCNAIINEDPNARLIRELQEEVARLRELLMAQGLSASALEGLKTEEGSVRGALPAVSSPPAPVSPSSPTTHNGELEPSFSPNTESQIGPEEAMERLQETEKIIAELNETWEEKLRKTEALRMEREALLAEMGVAVREDGGTVGVFSPKKTPHLVNLNEDPLMSECLLYHIKDGVTRVGQVDMDIKLTGQFIREQHCLFRSIPQPDGEVVVTLEPCEGAETYVNGKLVTEPLVLKSGNRIVMGKNHVFRFNHPEQARLERERGVPPPPGPPSEPVDWNFAQKELLEQQGIDIKLEMEKRLQDLENQYRKEKEEADLLLEQQRLYADSDSGDDSDKRSCEESWRLISSLREQLPPTTVQTIVKRCGLPSSGKRRAPRRVYQIPQRRRLQGKDPRWATMADLKMQAVKEICYEVALADFRHGRAEIEALAALKMRELCRTYGKPDGPGDAWRAVARDVWDTVGEEEGGGAGSGGGSEEGARGAEVEDLRAHIDKLTGILQEVKLQNSSKDRELQALRDRMLRMERVIPLAQDHEDENEEGGEVPWAPPEGSEAAEEAAPSDRMPSARPPSPPLSSWERVSRLMEEDPAFRRGRLRWLKQEQLRLQGLQGSGGRGGGLRRPPARFVPPHDCKLRFPFKSNPQHRESWPGMGSGEAPTPLQPPEEVTPHPATPARRPPSPRRSHHPRRNSLDGGGRSRGAGSAQPEPQHFQPKKHNSYPQPPQPYPAQRPPGPRYPPYTTPPRMRRQRSAPDLKESGAAV |
| binds | full-length recombinant human KIF1C(R169W)-GFP (protein, UniProt O43896 1-1103) MAGASVKVAVRVRPFNARETSQDAKCVVSMQGNTTSIINPKQSKDAPKSFTFDYSYWSHTSTEDPQFASQQQVYRDIGEEMLLHAFEGYNVCIFAYGQTGAGKSYTMMGRQEPGQQGIVPQLCEDLFSRVSENQSAQLSYSVEVSYMEIYCERVRDLLNPKSRGSLRVWEHPILGPYVQDLSKLAVTSYADIADLMDCGNKARTVAATNMNETSSRSHAVFTIVFTQRCHDQLTGLDSEKVSKISLVDLAGSERADSSGARGMRLKEGANINKSLTTLGKVISALADMQSKKRKSDFIPYRDSVLTWLLKENLGGNSRTAMIAALSPADINYEETLSTLRYADRTKQIRCNAIINEDPNARLIRELQEEVARLRELLMAQGLSASALEGLKTEEGSVRGALPAVSSPPAPVSPSSPTTHNGELEPSFSPNTESQIGPEEAMERLQETEKIIAELNETWEEKLRKTEALRMEREALLAEMGVAVREDGGTVGVFSPKKTPHLVNLNEDPLMSECLLYHIKDGVTRVGQVDMDIKLTGQFIREQHCLFRSIPQPDGEVVVTLEPCEGAETYVNGKLVTEPLVLKSGNRIVMGKNHVFRFNHPEQARLERERGVPPPPGPPSEPVDWNFAQKELLEQQGIDIKLEMEKRLQDLENQYRKEKEEADLLLEQQRLYADSDSGDDSDKRSCEESWRLISSLREQLPPTTVQTIVKRCGLPSSGKRRAPRRVYQIPQRRRLQGKDPRWATMADLKMQAVKEICYEVALADFRHGRAEIEALAALKMRELCRTYGKPDGPGDAWRAVARDVWDTVGEEEGGGAGSGGGSEEGARGAEVEDLRAHIDKLTGILQEVKLQNSSKDRELQALRDRMLRMERVIPLAQDHEDENEEGGEVPWAPPEGSEAAEEAAPSDRMPSARPPSPPLSSWERVSRLMEEDPAFRRGRLRWLKQEQLRLQGLQGSGGRGGGLRRPPARFVPPHDCKLRFPFKSNPQHRESWPGMGSGEAPTPLQPPEEVTPHPATPARRPPSPRRSHHPRRNSLDGGGRSRGAGSAQPEPQHFQPKKHNSYPQPPQPYPAQRPPGPRYPPYTTPPRMRRQRSAPDLKESGAAV |
| binds | full-length recombinant human KIF1C(P176L)-GFP (protein, UniProt O43896 1-1103) MAGASVKVAVRVRPFNARETSQDAKCVVSMQGNTTSIINPKQSKDAPKSFTFDYSYWSHTSTEDPQFASQQQVYRDIGEEMLLHAFEGYNVCIFAYGQTGAGKSYTMMGRQEPGQQGIVPQLCEDLFSRVSENQSAQLSYSVEVSYMEIYCERVRDLLNPKSRGSLRVREHPILGLYVQDLSKLAVTSYADIADLMDCGNKARTVAATNMNETSSRSHAVFTIVFTQRCHDQLTGLDSEKVSKISLVDLAGSERADSSGARGMRLKEGANINKSLTTLGKVISALADMQSKKRKSDFIPYRDSVLTWLLKENLGGNSRTAMIAALSPADINYEETLSTLRYADRTKQIRCNAIINEDPNARLIRELQEEVARLRELLMAQGLSASALEGLKTEEGSVRGALPAVSSPPAPVSPSSPTTHNGELEPSFSPNTESQIGPEEAMERLQETEKIIAELNETWEEKLRKTEALRMEREALLAEMGVAVREDGGTVGVFSPKKTPHLVNLNEDPLMSECLLYHIKDGVTRVGQVDMDIKLTGQFIREQHCLFRSIPQPDGEVVVTLEPCEGAETYVNGKLVTEPLVLKSGNRIVMGKNHVFRFNHPEQARLERERGVPPPPGPPSEPVDWNFAQKELLEQQGIDIKLEMEKRLQDLENQYRKEKEEADLLLEQQRLYADSDSGDDSDKRSCEESWRLISSLREQLPPTTVQTIVKRCGLPSSGKRRAPRRVYQIPQRRRLQGKDPRWATMADLKMQAVKEICYEVALADFRHGRAEIEALAALKMRELCRTYGKPDGPGDAWRAVARDVWDTVGEEEGGGAGSGGGSEEGARGAEVEDLRAHIDKLTGILQEVKLQNSSKDRELQALRDRMLRMERVIPLAQDHEDENEEGGEVPWAPPEGSEAAEEAAPSDRMPSARPPSPPLSSWERVSRLMEEDPAFRRGRLRWLKQEQLRLQGLQGSGGRGGGLRRPPARFVPPHDCKLRFPFKSNPQHRESWPGMGSGEAPTPLQPPEEVTPHPATPARRPPSPRRSHHPRRNSLDGGGRSRGAGSAQPEPQHFQPKKHNSYPQPPQPYPAQRPPGPRYPPYTTPPRMRRQRSAPDLKESGAAV |
